Data published in the supplement of paper PMC12595434, “Development of retinoid nuclear receptor pathway antagonists through targeting aldehyde dehydrogenase 1A3” (iScience, 2025).
The other results are listed elsewhere or left out. Single values of this set are uncertain.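 Many melting curves are irregular; where none melted, Tm was taken as 64 °C.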

Amino acid sequences for entries named in this document (tags omitted). A change or cut given only in a name is not applied to a line headed by its entry.
UniProt Q9BPU6: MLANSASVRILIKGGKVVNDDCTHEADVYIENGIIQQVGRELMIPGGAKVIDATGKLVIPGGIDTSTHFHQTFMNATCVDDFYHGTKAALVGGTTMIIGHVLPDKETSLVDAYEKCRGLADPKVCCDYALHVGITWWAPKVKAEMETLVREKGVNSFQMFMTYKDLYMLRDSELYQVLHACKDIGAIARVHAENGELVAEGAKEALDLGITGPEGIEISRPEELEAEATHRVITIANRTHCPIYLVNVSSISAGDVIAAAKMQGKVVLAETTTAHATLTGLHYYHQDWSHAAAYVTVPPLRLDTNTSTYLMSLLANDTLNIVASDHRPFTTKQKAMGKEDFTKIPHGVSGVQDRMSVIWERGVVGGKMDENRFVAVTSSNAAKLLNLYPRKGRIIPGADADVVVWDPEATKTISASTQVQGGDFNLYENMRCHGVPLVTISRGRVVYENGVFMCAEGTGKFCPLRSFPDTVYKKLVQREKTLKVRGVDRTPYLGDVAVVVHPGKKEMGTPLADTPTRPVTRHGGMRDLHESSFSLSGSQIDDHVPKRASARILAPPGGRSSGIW
UniProt Q9BRF8, whole entry: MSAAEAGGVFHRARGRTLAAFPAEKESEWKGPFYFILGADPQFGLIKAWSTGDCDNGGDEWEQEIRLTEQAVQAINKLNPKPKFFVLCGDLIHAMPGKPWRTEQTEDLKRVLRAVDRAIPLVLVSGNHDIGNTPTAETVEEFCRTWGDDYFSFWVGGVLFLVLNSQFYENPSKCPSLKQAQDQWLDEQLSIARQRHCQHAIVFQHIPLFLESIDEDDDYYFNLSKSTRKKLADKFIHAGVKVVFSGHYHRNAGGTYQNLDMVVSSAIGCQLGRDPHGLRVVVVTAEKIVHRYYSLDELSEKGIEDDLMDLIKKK
UniProt Q9BU64: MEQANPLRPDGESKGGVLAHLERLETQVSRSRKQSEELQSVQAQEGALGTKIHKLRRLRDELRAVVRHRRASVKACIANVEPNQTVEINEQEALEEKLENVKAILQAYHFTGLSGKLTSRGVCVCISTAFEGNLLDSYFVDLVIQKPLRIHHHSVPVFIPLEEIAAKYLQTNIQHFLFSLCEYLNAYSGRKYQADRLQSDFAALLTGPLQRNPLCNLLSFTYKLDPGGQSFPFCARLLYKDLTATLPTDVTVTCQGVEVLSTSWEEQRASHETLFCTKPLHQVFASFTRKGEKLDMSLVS
UniProt Q9BPX3, whole entry, looked up: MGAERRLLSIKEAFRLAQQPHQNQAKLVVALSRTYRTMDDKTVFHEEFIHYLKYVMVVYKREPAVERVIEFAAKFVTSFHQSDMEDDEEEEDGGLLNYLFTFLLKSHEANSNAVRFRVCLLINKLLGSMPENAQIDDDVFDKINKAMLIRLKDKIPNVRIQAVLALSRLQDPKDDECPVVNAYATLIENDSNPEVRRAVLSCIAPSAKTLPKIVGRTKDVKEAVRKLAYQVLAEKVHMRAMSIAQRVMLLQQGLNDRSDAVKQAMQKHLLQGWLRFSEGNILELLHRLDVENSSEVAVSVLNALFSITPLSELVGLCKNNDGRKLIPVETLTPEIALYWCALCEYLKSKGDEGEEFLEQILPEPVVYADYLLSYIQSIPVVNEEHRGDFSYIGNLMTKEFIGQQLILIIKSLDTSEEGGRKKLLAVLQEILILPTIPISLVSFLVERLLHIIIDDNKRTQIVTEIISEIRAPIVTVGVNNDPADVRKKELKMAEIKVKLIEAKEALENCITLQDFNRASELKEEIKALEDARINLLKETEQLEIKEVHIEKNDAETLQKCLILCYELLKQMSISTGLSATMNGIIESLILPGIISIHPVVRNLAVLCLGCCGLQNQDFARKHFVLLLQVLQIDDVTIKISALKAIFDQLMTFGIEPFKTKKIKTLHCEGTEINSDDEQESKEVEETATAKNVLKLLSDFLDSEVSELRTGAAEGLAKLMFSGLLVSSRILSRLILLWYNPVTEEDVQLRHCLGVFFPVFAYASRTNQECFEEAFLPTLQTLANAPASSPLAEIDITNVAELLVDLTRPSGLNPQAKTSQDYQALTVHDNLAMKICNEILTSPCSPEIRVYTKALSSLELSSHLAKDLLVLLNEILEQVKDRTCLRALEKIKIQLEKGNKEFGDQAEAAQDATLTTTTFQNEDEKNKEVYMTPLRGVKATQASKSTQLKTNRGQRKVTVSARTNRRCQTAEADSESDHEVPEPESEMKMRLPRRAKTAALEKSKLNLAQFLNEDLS
UniProt Q9BTY7: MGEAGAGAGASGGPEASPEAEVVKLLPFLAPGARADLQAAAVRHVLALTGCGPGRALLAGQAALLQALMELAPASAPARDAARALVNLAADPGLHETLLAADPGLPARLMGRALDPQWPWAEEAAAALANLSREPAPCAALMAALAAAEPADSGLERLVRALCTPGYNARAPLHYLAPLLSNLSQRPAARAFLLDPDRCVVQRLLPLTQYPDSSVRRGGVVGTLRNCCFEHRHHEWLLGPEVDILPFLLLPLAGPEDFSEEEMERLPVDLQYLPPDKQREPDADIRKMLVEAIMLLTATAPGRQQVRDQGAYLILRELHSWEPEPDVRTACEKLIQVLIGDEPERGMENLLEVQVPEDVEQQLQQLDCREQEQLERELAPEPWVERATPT
UniProt Q9BWG6: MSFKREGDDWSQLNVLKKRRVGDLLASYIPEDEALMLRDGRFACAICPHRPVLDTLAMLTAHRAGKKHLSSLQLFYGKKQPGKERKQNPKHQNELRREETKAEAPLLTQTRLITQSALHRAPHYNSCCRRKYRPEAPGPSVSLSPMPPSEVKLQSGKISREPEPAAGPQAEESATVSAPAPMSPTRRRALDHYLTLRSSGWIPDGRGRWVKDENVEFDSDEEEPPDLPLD
UniProt Q9BSW2: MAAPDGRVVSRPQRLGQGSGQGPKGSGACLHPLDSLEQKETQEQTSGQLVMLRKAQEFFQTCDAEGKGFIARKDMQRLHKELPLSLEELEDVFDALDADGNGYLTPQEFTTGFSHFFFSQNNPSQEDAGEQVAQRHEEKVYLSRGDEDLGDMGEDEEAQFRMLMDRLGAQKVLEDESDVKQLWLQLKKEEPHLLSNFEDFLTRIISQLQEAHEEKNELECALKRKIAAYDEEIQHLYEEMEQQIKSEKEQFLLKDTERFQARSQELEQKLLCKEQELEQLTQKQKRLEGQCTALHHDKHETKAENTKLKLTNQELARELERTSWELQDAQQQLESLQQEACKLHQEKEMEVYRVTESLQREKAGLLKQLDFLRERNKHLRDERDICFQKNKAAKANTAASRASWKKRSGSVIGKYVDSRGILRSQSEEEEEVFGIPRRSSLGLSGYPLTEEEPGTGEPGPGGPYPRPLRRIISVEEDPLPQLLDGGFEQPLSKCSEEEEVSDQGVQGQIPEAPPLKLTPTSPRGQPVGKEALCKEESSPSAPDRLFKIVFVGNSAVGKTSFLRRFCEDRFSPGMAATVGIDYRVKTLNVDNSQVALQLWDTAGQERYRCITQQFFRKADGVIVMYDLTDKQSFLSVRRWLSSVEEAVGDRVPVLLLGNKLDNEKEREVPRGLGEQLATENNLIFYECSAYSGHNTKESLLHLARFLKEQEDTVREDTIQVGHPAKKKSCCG
UniProt Q9BSJ6: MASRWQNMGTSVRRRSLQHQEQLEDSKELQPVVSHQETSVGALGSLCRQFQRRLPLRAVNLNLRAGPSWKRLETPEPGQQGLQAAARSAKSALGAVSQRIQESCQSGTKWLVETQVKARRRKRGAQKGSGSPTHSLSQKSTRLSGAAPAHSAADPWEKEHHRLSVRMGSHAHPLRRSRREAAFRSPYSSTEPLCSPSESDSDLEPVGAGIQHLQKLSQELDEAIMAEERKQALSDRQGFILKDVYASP
UniProt Q9BY50: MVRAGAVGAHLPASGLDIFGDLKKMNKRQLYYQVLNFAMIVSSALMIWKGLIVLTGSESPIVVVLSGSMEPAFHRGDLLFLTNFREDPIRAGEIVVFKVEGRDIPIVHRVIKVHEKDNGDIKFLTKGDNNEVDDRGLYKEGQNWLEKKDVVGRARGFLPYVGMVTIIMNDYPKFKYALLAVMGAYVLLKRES
UniProt Q9BRS2: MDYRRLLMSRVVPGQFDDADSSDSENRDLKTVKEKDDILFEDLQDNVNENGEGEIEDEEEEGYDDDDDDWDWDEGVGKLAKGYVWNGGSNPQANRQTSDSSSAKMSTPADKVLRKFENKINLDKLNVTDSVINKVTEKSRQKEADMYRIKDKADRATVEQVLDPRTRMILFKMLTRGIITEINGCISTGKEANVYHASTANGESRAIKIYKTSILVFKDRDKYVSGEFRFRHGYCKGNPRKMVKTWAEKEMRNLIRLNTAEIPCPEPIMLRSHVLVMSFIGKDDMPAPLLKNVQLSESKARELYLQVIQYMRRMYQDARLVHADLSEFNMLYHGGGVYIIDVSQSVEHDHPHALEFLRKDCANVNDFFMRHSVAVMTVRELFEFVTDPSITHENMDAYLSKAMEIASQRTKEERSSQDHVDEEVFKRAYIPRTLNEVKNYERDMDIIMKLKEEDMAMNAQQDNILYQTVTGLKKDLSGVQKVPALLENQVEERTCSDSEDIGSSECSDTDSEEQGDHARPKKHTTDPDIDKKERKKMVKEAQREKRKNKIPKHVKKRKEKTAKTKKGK
UniProt Q9BQ95: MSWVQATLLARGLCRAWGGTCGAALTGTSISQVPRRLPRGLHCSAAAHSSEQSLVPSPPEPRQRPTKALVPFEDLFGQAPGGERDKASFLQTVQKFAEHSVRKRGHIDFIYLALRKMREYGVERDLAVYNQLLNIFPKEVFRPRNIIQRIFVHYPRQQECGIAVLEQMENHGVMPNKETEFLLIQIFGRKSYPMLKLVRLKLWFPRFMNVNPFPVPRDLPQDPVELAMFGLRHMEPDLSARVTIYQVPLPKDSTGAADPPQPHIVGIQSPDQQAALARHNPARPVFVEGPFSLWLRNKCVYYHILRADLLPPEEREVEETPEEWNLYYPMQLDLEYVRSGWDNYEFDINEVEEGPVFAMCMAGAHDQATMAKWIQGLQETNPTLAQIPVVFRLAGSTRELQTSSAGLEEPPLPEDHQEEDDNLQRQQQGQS
UniProt Q99622: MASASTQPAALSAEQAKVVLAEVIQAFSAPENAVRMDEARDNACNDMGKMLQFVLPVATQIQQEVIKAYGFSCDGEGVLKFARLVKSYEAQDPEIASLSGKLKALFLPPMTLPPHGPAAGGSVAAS
UniProt Q99805: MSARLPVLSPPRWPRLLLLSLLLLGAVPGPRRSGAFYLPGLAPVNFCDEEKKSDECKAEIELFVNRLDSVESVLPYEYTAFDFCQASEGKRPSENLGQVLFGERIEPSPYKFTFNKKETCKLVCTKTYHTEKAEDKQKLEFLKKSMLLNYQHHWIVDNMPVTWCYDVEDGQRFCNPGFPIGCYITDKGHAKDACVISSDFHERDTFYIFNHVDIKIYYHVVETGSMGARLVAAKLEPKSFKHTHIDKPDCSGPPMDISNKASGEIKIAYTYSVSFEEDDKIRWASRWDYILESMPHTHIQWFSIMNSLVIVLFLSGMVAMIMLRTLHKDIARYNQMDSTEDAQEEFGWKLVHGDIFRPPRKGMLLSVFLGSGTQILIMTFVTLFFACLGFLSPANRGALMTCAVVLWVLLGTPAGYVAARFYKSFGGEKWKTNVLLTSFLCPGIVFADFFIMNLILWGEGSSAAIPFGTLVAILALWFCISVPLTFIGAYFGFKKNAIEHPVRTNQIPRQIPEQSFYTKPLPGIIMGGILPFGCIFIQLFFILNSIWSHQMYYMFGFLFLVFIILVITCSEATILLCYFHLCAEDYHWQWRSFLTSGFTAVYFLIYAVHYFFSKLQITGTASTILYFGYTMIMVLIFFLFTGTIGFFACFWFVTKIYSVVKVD
UniProt Q9BTL3: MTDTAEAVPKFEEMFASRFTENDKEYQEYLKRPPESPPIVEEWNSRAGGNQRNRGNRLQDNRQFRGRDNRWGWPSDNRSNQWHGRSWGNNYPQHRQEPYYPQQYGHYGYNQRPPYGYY
UniProt Q9BTE7: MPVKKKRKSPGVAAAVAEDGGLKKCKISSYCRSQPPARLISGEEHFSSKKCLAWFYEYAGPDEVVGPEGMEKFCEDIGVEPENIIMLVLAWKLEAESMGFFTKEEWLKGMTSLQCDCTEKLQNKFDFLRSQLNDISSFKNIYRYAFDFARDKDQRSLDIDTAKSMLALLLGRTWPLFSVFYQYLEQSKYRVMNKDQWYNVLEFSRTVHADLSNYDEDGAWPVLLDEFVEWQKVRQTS
UniProt Q9BRV8: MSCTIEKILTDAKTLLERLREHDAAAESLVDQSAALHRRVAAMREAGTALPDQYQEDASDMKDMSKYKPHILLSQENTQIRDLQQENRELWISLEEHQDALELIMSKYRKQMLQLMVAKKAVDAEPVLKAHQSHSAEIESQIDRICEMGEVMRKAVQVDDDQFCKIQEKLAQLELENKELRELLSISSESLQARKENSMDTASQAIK
UniProt Q9BSF4: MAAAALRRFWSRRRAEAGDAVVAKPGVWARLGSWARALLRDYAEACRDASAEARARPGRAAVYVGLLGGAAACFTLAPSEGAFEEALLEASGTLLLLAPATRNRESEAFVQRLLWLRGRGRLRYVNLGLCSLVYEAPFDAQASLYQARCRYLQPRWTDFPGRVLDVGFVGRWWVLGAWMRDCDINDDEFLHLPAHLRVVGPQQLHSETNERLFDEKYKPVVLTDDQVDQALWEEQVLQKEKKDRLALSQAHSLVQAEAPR

Compound: CCc1cnccc1C(=O)Nc1cc2c(cc1F)NC(=O)CC2
Test: melting temperature shift (DMSO Tm minus MBE1-treated Tm) in cellular thermal proteome profiling; higher = less thermal stabilization by MBE1 (negative = stabilized by MBE1)
Details: A375

Target	melting temperature shift (MBE1 concentration: 100 nM)	melting temperature shift (MBE1 concentration: 1 uM)
UniProt Q9BPU6	0.235 °C	0.299 °C
CPPED1 (UniProt Q9BRF8)	-2.18 °C	-2 °C
UniProt Q9BU64	-1.03 °C	0.791 °C
KATNAL1 (UniProt Q9BW62)	-0.342 °C	0.58 °C
NUDT12 (UniProt Q9BQG2)	0.464 °C	0.11 °C
SRRT (UniProt Q9BXP5)	-0.489 °C	-0.249 °C
PIK3R4 (UniProt Q99570)	0.574 °C	0.488 °C
NCAPG (UniProt Q9BPX3)	-0.725 °C	-0.513 °C
UniProt Q9BV29	1.87 °C	-1.25 °C
HGH1 (UniProt Q9BTY7)	-0.403 °C	-0.45 °C
SCNM1 (UniProt Q9BWG6)	-0.107 °C	0.399 °C
UniProt Q9BSW2	0.843 °C	-0.22 °C
UniProt Q9BSJ6	-3.77 °C	1.34 °C
UniProt Q9BXY0	-0.604 °C	0.741 °C
COQ7 (UniProt Q99807)	-2.58 °C	-0.501 °C
MED18 (UniProt Q9BUE0)	-0.47 °C	0.047 °C
PDCD10 (UniProt Q9BUL8)	-1.47 °C	0.0122 °C
SEC11C (UniProt Q9BY50)	-1.22 °C	1.31 °C
RIOK1 (UniProt Q9BRS2)	-2.11 °C	0.434 °C
ECSIT (UniProt Q9BQ95)	-0.689 °C	-1.69 °C
UniProt Q99622	-0.861 °C	-1.98 °C
TXNDC17 (UniProt Q9BRA2)	-0.603 °C	0.101 °C
GRWD1 (UniProt Q9BQ67)	-1.61 °C	-0.115 °C
UniProt Q9BVR0	-0.179 °C	0.503 °C
TM9SF2 (UniProt Q99805)	-0.577 °C	0.711 °C
FAM103A1 (UniProt Q9BTL3)	0.818 °C	-2.47 °C
DCUN1D5 (UniProt Q9BTE7)	0.102 °C	-0.231 °C
UniProt Q9BRV8	0.397 °C	-2.08 °C
C19ORF52 (UniProt Q9BSF4)	-0.215 °C	0.416 °C

Complete entries, quoted from the list:
GRWD1 (UniProt Q9BQ67) as listed: melting temperature shift (MBE1 concentration: 100 nM): -1.61 °C; melting temperature shift (MBE1 concentration: 1 uM): -0.115 °C
KATNAL1 (UniProt Q9BW62) as listed: melting temperature shift (MBE1 concentration: 100 nM): -0.342 °C; melting temperature shift (MBE1 concentration: 1 uM): 0.58 °C
